Taken from: PubChem BioAssay AID1224830 (NIAID, 2016)
Test: 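Genes whose knock-down alters the TNF-alpha reporter response to LPS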 (primary screen). Cells: human THP-1 monocytic leukaemia cells, TNF dual-luciferase reporter clone, PMA-differentiated to macrophage-like cells. Reagent: siRNA pool against human genes, 50 nM. Duration: LPS for 4 h, given about 3 days after siRNA transfection. Challenge: bacterial LPS (TLR4 ligand), 10 ng/ml. Detection: 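Ratio of firefly to renilla light, scaled to the plate median and expressed as a robust z-score per replicate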. Reading the numbers: TNF reporter robust z-score: higher = stronger TNF reporter response to LPS. Hit rule: 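a well is active when its z-score exceeds 2.8 or falls below -1.5; control wells carry no call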.
This is a random part of about 18,000 reagents tested. About 2,900 of all reagents (16%) count as active. 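Calls are made per well; low scores hint the gene aids the LPS response, high scores that it dampens it.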 Repeated entries: four replicate wells of each siRNA pool.

no.	gene knocked down	TNF reporter robust z-score	activity call
1	ARHGAP19 (GeneID 84986)	-0.55	inactive
2	ARHGAP19 (GeneID 84986)	-0.82	inactive
3	ARHGAP19 (GeneID 84986)	-0.29	inactive
4	ARHGAP19 (GeneID 84986)	-0.46	inactive
5	LCN15 (GeneID 389812)	-1.13	inactive
6	LCN15 (GeneID 389812)	-1.69	active
7	LCN15 (GeneID 389812)	-1.61	active
8	LCN15 (GeneID 389812)	-1.11	inactive
9	AIFM1 (GeneID 9131)	-1.12	inactive
10	AIFM1 (GeneID 9131)	-0.13	inactive
11	AIFM1 (GeneID 9131)	-0.35	inactive
12	AIFM1 (GeneID 9131)	0	inactive
13	THPO (GeneID 7066)	-1.36	inactive
14	THPO (GeneID 7066)	-1.57	active
15	THPO (GeneID 7066)	-1.58	active
16	THPO (GeneID 7066)	-1.1	inactive
17	ALAS1 (GeneID 211)	-1.32	inactive
18	ALAS1 (GeneID 211)	-1.45	inactive
19	ALAS1 (GeneID 211)	0.09	inactive
20	ALAS1 (GeneID 211)	-0.44	inactive
21	KPNA2 (GeneID 3838)	0.29	inactive
22	KPNA2 (GeneID 3838)	1.05	inactive
23	KPNA2 (GeneID 3838)	1.12	inactive
24	KPNA2 (GeneID 3838)	1.26	inactive
25	MMP17 (GeneID 4326)	-0.65	inactive
26	MMP17 (GeneID 4326)	0.06	inactive
27	MMP17 (GeneID 4326)	-0.27	inactive
28	MMP17 (GeneID 4326)	0.82	inactive
29	RHBDL2 (GeneID 54933)	0.24	inactive
30	RHBDL2 (GeneID 54933)	2.24	inactive
31	RHBDL2 (GeneID 54933)	0.27	inactive
32	RHBDL2 (GeneID 54933)	2.18	inactive
33	IGSF5 (GeneID 150084)		inactive
34	IGSF5 (GeneID 150084)	-0.67	inactive
35	IGSF5 (GeneID 150084)	-0.8	inactive
36	IGSF5 (GeneID 150084)	-0.42	inactive
37	ZNF311 (GeneID 282890)	0.24	inactive
38	ZNF311 (GeneID 282890)	0.3	inactive
39	ZNF311 (GeneID 282890)	0.38	inactive
40	ZNF311 (GeneID 282890)	0.5	inactive
41	PRELID3A (GeneID 10650)	-0.37	inactive
42	PRELID3A (GeneID 10650)	0.14	inactive
43	PRELID3A (GeneID 10650)	-0.8	inactive
44	PRELID3A (GeneID 10650)	-0.48	inactive
45	RACGAP1 (GeneID 29127)	-0.11	inactive
46	RACGAP1 (GeneID 29127)	-0.81	inactive
47	RACGAP1 (GeneID 29127)	-0.68	inactive
48	RACGAP1 (GeneID 29127)	-0.28	inactive
49	ARHGEF6 (GeneID 9459)	-1.4	inactive
50	ARHGEF6 (GeneID 9459)	-1.48	inactive
51	ARHGEF6 (GeneID 9459)	-1.17	inactive
52	ARHGEF6 (GeneID 9459)	-1.39	inactive
53	UNC45A (GeneID 55898)	-0.18	inactive
54	UNC45A (GeneID 55898)	-0.93	inactive
55	UNC45A (GeneID 55898)	-0.25	inactive
56	UNC45A (GeneID 55898)	-0.84	inactive
57	NRIP2 (GeneID 83714)	-0.4	inactive
58	NRIP2 (GeneID 83714)	1.12	inactive
59	NRIP2 (GeneID 83714)	1.32	inactive
60	NRIP2 (GeneID 83714)	0.71	inactive
61	IL36RN (GeneID 26525)	-0.63	inactive
62	IL36RN (GeneID 26525)	-0.69	inactive
63	IL36RN (GeneID 26525)	-0.44	inactive
64	IL36RN (GeneID 26525)	-0.09	inactive
65	PRAMEF16 (retired record) (GeneID 654348)	-2.19	active
66	PRAMEF16 (retired record) (GeneID 654348)	-0.61	inactive
67	PRAMEF16 (retired record) (GeneID 654348)	-0.29	inactive
68	PRAMEF16 (retired record) (GeneID 654348)	-0.16	inactive
69	TNFRSF19 (GeneID 55504)	-1.23	inactive
70	TNFRSF19 (GeneID 55504)	0.54	inactive
71	TNFRSF19 (GeneID 55504)	0.1	inactive
72	TNFRSF19 (GeneID 55504)	-0.29	inactive
73	PAOX (GeneID 196743)	-1.16	inactive
74	PAOX (GeneID 196743)	-1.23	inactive
75	PAOX (GeneID 196743)	-1.24	inactive
76	PAOX (GeneID 196743)	-0.94	inactive
77	TTC3 (GeneID 7267)	1.97	inactive
78	TTC3 (GeneID 7267)	0.46	inactive
79	TTC3 (GeneID 7267)	0.61	inactive
80	TTC3 (GeneID 7267)	1.56	inactive
81	TRPC4AP (GeneID 26133)	1.61	inactive
82	TRPC4AP (GeneID 26133)	0.83	inactive
83	TRPC4AP (GeneID 26133)	1.2	inactive
84	TRPC4AP (GeneID 26133)	0.67	inactive
85	C8A (GeneID 731)	0.1	inactive
86	C8A (GeneID 731)	0.29	inactive
87	C8A (GeneID 731)	-0.43	inactive
88	C8A (GeneID 731)	0.19	inactive
89	ZDHHC16 (GeneID 84287)	-0.77	inactive
90	ZDHHC16 (GeneID 84287)	0.09	inactive
91	ZDHHC16 (GeneID 84287)	0.81	inactive
92	ZDHHC16 (GeneID 84287)	0.2	inactive
93	VCY (GeneID 9084)	-0.07	inactive
94	VCY (GeneID 9084)	-0.12	inactive
95	VCY (GeneID 9084)	-0.93	inactive
96	VCY (GeneID 9084)	-0.75	inactive
97	MVP (GeneID 9961)	0.38	inactive
98	MVP (GeneID 9961)	0.17	inactive
99	MVP (GeneID 9961)	-0.01	inactive
100	MVP (GeneID 9961)	1.65	inactive
101	VRK2 (GeneID 7444)	2.06	inactive
102	VRK2 (GeneID 7444)	0.61	inactive
103	VRK2 (GeneID 7444)	2.86	active
104	VRK2 (GeneID 7444)	4.05	active
105	PHPT1 (GeneID 29085)	0.53	inactive
106	PHPT1 (GeneID 29085)	0.15	inactive
107	PHPT1 (GeneID 29085)	-0.01	inactive
108	PHPT1 (GeneID 29085)	-0.31	inactive
109	PCMTD2 (GeneID 55251)	-1.5	inactive
110	PCMTD2 (GeneID 55251)	-1.42	inactive
111	PCMTD2 (GeneID 55251)	-1.65	active
112	PCMTD2 (GeneID 55251)	-0.77	inactive
